Results: PMC6713708
No constants are given. Whether binding was seen depends on the method and setting. In cells and extracts the contact can be indirect. Some binding calls cover weakened binding; strength is not graded here. Tags and fused reporters may be left off the sequences shown.

T1: GST-Syntaxin5 full length cytoplasmic domain (AA1-275) (rat) (UniProt Q08851)
T1 sequence: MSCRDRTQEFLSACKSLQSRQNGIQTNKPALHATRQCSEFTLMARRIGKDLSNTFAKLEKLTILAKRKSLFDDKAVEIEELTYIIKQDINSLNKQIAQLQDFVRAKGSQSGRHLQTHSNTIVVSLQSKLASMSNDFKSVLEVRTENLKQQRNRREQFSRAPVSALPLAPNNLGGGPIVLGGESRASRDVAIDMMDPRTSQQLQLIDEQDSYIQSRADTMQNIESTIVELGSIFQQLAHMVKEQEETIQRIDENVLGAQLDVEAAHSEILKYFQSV


Biological target: T1, GST-Syntaxin5 full length cytoplasmic domain (AA1-275) (rat)
Assay: pull-down; GST-Syntaxin5 cytoplasmic domain or GST-GS15 as bait; prey from HeLa cell extract; only the target purified

| binding | Binder |
| --- | --- |
| binds | YFP-Golgin45 (protein, UniProt Q9H2G9 1-400) MTTKNLETKVTVTSSPIRGAGDGMETEEPPKSVEVTSGVQSRKHHSLQSPWKKAVPSESPGVLQLGKMLTEKAMEVKAVRILVPKAAITHDIPNKNTKVKSLGHHKGEFLGQSEGVIEPNKELSEVKNVLEKLKNSERRLLQDKEGLSNQLRVQTEVNRELKKLLVASVGDDLQYHFERLAREKNQLILENEALGRNTAQLSEQLERMSIQCDVWRSKFLASRVMADELTNSRAALQRQNRDAHGAIQDLLSEREQFRQEMIATQKLLEELLVSLQWGREQTYSPSVQPHSTAELALTNHKLAKAVNSHLLGNVGINNQKKIPSTVEFCSTPAEKMAETVLRILDPVTCKESSPDNPFFESSPTTLLATKKNIGRFHPYTRYENITFNCCNHCRGELIAL |
| binds | GM130 (protein, UniProt Q08379 1-1002) MWPQPRLPPRPAMSEETRQSKLAAAKKKLREYQQRNSPGVPTGAKKKKKIKNGSNPETTTSGGCHSPEDTPKDNAATLQPSDDTVLPGGVPSPGASLTSMAASQNHDADNVPNLMDETKTFSSTESLRQLSQQLNGLVCESATCVNGEGPASSANLKDLESRYQQLAVALDSSYVTNKQLNITIEKLKQQNQEITDQLEEEKKECHQKQGALREQLQVHIQTIGILVSEKAELQTALAHTQHAARQKEGESEDLASRLQYSRRRVGELERALSAVSTQQKKADRYNKELTKERDALRLELYKNTQSNEDLKQEKSELEEKLRVLVTEKAGMQLNLEELQKKLEMTELLLQQFSSRCEAPDANQQLQQAMEERAQLEAHLGQVMESVRQLQMERDKYAENLKGESAMWRQRMQQMSEQVHTLREEKECSMSRVQELETSLAELRNQMAEPPPPEPPAGPSEVEQQLQAEAEHLRKELEGLAGQLQAQVQDNEGLSRLNREQEERLLELERAAELWGEQAEARRQILETMQNDRTTISRALSQNRELKEQLAELQSGFVKLTNENMEITSALQSEQHVKRELGKKLGELQEKLSELKETVELKSQEAQSLQQQRDQYLGHLQQYVAAYQQLTSEKEVLHNQLLLQTQLVDQLQQQEAQGKAVAEMARQELQETQERLEAATQQNQQLRAQLSLMAHPGEGDGLDREEEEDEEEEEEEAVAVPQPMPSIPEDLESREAMVAFFNSAVASAEEEQARLRGQLKEQRVRCRRLAHLLASAQKEPEAAAPAPGTGGDSVCGETHRALQGAMEKLQSRFMELMQEKADLKERVEELEHRCIQLSGETDTIGEYIALYQSQRAVLKERHREKEEYISRLAQDKEEMKVKLLELQELVLRLVGDRNEWHGRFLAAAQNPADEPTSGAPAPQELGAANQQGDLCEVSLAGSVEPAQGEAREGSPRDNPTAQQIMQLLREMQNPRERPGLGSNPCIPFFYRADENDEVKITVI |
